Experiment [1] deals with T1, GST-17β-HSD13 (UniProt Q7Z5P4).
T1 sequence: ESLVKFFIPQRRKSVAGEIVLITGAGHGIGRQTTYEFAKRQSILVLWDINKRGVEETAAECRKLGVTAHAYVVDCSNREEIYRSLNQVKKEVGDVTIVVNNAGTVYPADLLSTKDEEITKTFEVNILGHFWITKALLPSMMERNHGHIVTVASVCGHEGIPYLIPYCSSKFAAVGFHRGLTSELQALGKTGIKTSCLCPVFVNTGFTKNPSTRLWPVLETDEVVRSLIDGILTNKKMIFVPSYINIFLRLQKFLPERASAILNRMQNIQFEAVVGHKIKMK
Kind of experiment: pull-down; Glutathione-Sepharose beads precoated with 1 μg GST-17β-HSD13 or GST, incubated with lysates of 293T cells overexpressing mCherry-ATGL (1 μg); western blot; only the target purified. A general note: In western blotting, separated proteins are transferred to a membrane and probed.

The target of experiment [2] is T2, myc-tagged 17β-hydroxysteroid dehydrogenase 13 wild type (UniProt Q7Z5P4).
T2 sequence: T1 sequence
Nature of the experiment: co-IP; 293T cells transfected with GFP- or myc-tagged 17β-HSD13 (WT or S33A) and mCherry-ATGL; lysates incubated with the indicated beads (anti-GFP beads in Fig. 5b) for 1 h; washed 5 times with buffer containing 250 mM NaCl; immunoblot.

The target of experiment [3] is T3, GFP-tagged 17β-hydroxysteroid dehydrogenase 13 wild type (human) (UniProt Q7Z5P4).
T3 sequence: T1 sequence
Described as above.

For experiment [4], the target named is T4, GFP-tagged 17β-hydroxysteroid dehydrogenase 13 S33A mutant (human) (UniProt Q7Z5P4).
T4 sequence: T1 sequence with S14A
The experiment is described as above.

Experiment [5] deals with T5, Flag-CGI-58, Q8WTS1.
T5 chain: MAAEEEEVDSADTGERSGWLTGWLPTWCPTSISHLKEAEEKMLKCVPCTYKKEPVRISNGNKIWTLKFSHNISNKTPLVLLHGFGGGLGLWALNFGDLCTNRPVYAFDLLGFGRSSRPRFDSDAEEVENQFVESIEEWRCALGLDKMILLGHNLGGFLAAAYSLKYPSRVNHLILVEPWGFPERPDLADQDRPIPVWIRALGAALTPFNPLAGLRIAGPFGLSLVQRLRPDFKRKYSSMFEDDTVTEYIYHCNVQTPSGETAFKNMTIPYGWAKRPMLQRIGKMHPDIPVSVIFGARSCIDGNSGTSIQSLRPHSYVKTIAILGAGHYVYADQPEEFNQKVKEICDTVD
Nature of the experiment: co-IP; 293T cells co-transfected with Flag-CGI-58, MC-ATGL and GFP, GFP-17β-HSD13 or GFP-17β-HSD13 S33A, with or without forskolin for 30 min; lysates immunoprecipitated with anti-flag beads; ATGL detected with anti-mCherry antibody. To be noted: remark: other sources report otherwise.

Where a chain is given by its changes, count along the chain named. These are yes or no findings as the source states them, for the method shown. Binding seen in cells or lysates may run through a third protein. Some binding calls cover weakened binding; strength is not graded here. Where a sequence is shown, tags or fusion partners need not be part of it.

B1: mCherry-tagged adipose triglyceride lipase (protein, UniProt Q96AD5 1-504)
chain: MFPREKTWNISFAGCGFLGVYYVGVASCLREHAPFLVANATHIYGASAGALTATALVTGVCLGEAGAKFIEVSKEARKRFLGPLHPSFNLVKIIRSFLLKVLPADSHEHASGRLGISLTRVSDGENVIISHFNSKDELIQANVCSGFIPVYCGLIPPSLQGVRYVDGGISDNLPLYELKNTITVSPFSGESDICPQDSSTNIHELRVTNTSIQFNLRNLYRLSKALFPPEPLVLREMCKQGYRDGLRFLQRNGLLNRPNPLLALPPARPHGPEDKDQAVESAQAEDYSQLPGEDHILEHLPARLNEALLEACVEPTDLLTTLSNMLPVRLATAMMVPYTLPLESALSFTIRLLEWLPDVPEDIRWMKEQTGSICQYLVMRAKRKLGRHLPSRLPEQVELRRVQSLPSVPLSCAAYREALPGWMRNNLSLGDALAKWEECQRQLLLGLFCTNVAFPPEALRMRAPADPAPAPADPASPQHQLAGPAPLLSTPAPEARPVIGALGL
For B1, the binding result in experiment [1], in experiment [2], in experiment [3] and in experiment [4] was “binds” throughout.

B2: mCherry-tagged adipose triglyceride lipase, Q96AD5 1-504 (protein)
chain: B1 chain
With B2, in experiment [5], the binding entry is “binds”.

The values are drawn from PMC9630536.
